Converted amounts (≈) assume the structure as drawn.
Key:
[1] = test system: C. albicans; assay: Planktonic MIC in presence or absence of isolated biofilm matrix; type: cell-based; conditions: Candida albicans, no biofilm matrix, read-out: MIC, medium only
Experimental: (§1) Minimum inhibitory concentrations (MICs) for antibacterial and antifungal agents were determined using the broth microdilution method according to CLSI guidelines M07-A9 (for S. aureus) and M27-A3 (for C. albicans), but replacing Muller-Hinton broth with RPMI-1640 for antibacterial MIC testing. One hundred microlitres of two-fold serial dilutions of the drugs prepared in RPMI-1640 were added into the wells of 96-well microplates. Exponentially grown cultures were diluted in RPMI-1640 to a density of ˜1×10^3 CFU/mL for C. albicans and ˜1×10^6 CFU/mL for S. aureus and 100 μL were added to each well. Microplates were incubated for 18 h at 35° C. for S. aureus and 48 h for C. albicans. Bacterial or fungal growth was examined visually with the aid of a mirror reader. The antibacterial MIC was defined as the lowest concentration resulting in complete growth inhibition. The MIC of antifungals was read as the lowest concentration that prevents discernible growth for amphotericin B or polymers, or as the lowest concentration that inhibits at least 50% of fungal growth for fluconazole and caspofungin, corresponding to a score of zero or two in the CLSI M27-A3 protocol.
Extracellular matrix was isolated from Candida or polymicrobial biofilms following the method reported in PLoS pathogens 2012, 8:e1002848. Biofilms were established by growing cultures in 6-well TCPS microplates for 48 h at 37° C. […]

[2] = test system: C. albicans; assay: Broth microdilution MIC, planktonic cells; type: cell-based; conditions: Candida albicans; C. albicans single species culture, RPMI-1640, 48 h
Experimental: as §1

## OC(Cn1cncn1)(Cn1cncn1)c1ccc(F)cc1F [Fluconazole, fluconazole]
[1]
  MIC: 0.5 µg/mL (≈ 1.63 µM)
[2]
  MIC: 0.5 µg/mL (≈ 1.63 µM)

— patent publication US20180344763A1, “METHODS FOR ADVERSELY AFFECTING BIOFILMS” (Commonwealth Scientific and Industrial Research Organisation, priority 2015, published 2018)
